Literature values in patent US6913917B2, “Anti-cocaine catalytic antibody” (priority 1996, dated 2005).
Changes are numbered by the printed parent chain. Some results were stated once for a whole list of compounds, not compound by compound.

B1: Mab 3B9: anti-cocaine catalytic monoclonal antibody elicited by TSA 1 (antibody, V domains shown)
VH: DVQLQESGPGLVKPSQSLSLTCTVTGNSITSDYAWTWIRQFPGNKLEWMGYIRHIYGTRYNPSLISRISITRDTSKNQFFLQLDSVTAEDTATYYCVRYHYYGSAYWGQGTLVTVSAAKTTP
VL: DIVMTQDELSNPVTSGESVSISCRSSRSLLYRDGKTYLNWFLQRPGRSPQLLIYLMSTRSSGVSDRFSGSGSGTDFTLEISRVKAEDVGVYYCQHFVDYPFTFGSGTKLEIKR
modifications: mouse
B2: Mab 6A12: anti-cocaine catalytic monoclonal antibody elicited by TSA 1 (antibody)
heavy: B1 VH
light: B1 VL with I2M, S60A, C93F, V97E
modifications: mouse

Conditions: first artificial cocaine esterases, previously reported (9); cited from earlier work

Row | Molecule | rate acceleration
1 | B1 | 10^2-10^3
2 | B2 | 10^2-10^3
